From paper PMC7794343, “Structures of human dual oxidase 1 complex in low-calcium and high-calcium states” (Nature Communications, 2021)
These are yes or no findings as the source states them, for the method shown. Some entries that bind do so weakly or less than the wild type. For some assays here: Tags and fused reporters may be left off the sequences shown.

Tests used:
[1] = target: hDUOX1 CBS2 mutant (D109A + D174A) (human) (UniProt Q9NRD9); assay: SEC; fluorescence size-exclusion chromatography (FSEC) of GFP-tagged hDUOX1 co-expressed with hDUOXA1; membrane solubilised in TBS + 1% digitonin, 1 h, 4 °C
[2] = target: hDUOX1 CBS1 mutant (D397A + T332A) (human) (UniProt Q9NRD9); assay: as above
[3] = target: human dual oxidase 1 (hDUOX1), matured protein 20-1551 with N-terminal GFP tag (human) (UniProt Q9NRD9); assay: as above
[4] = target: human dual oxidase 1 (hDUOX1), matured protein 20-1551 with N-terminal GFP tag (human) (UniProt Q9NRD9); assay: cryo-EM structure; hDUOX1-hDUOXA1 complex in peptidisc (NSPr); 2.5 mM EGTA (low calcium) or 0.5 mM free calcium (high calcium); 100 uM FAD, 500 uM NADPH, 0.5 mM fluorinated octyl-maltoside; both purified
[5] = target: human dual oxidase 1 (hDUOX1), matured protein 20-1551 with N-terminal GFP tag (human) (UniProt Q9NRD9); assay: SEC; fluorescence size-exclusion chromatography (FSEC) of GFP-tagged hDUOX1 expressed without hDUOXA1

B1: human dual oxidase maturation factor 1 (hDUOXA1) with C-terminal MBP-mScarlet tag (protein, UniProt Q1HG43 1-330)
chain: MATLGHTFPFYAGPKPTFPMDTTLASIIMIFLTALATFIVILPGIRGKTRLFWLLRVVTSLFIGAAILAVNFSSEWSVGQVSTNTSYKAFSSEWISADIGLQVGLGGVNITLTGTPVQQLNETINYNEEFTWRLGENYAEEYAKALEKGLPDPVLYLAEKFTPRSPCGLYRQYRLAGHYTSAMLWVAFLCWLLANVMLSMPVLVYGGYMLLATGIFQLLALLFFSMATSLTSPCPLHLGASVLHTHHGPAFWITLTTGLLCVLLGLAMAVAHRMQPHRLKAFFNQSVDEDPMLEWSPEEGGLLSPRYRSMADSPKSQDIPLSEASSTKAY
- binding [1]: no binding
- binding [2]: no binding
- binding [3]: binds

B2: human dual oxidase maturation factor 1 (hDUOXA1), as in the purified peptidisc complex (natural protein)
chain: B1 chain
modifications: N-linked glycosylation on N109
notes: human DUOXA1; cDNA cloned into a non-tagged BacMam vector or one with C-terminal MBP-mScarlet tag; the non-tagged one is surmised here; source: HEK293F, BacMam baculovirus infection, co-expressed with hDUOX1 from a bicistronic vector; purified with hDUOX1 (Streptactin beads, peptidisc, Superose 6 increase)
- binding [4]: binds

B3: human dual oxidase 1 (hDUOX1), matured protein 20-1551 with N-terminal GFP tag (enzyme, UniProt Q9NRD9-1 20-1551, looked up)
chain: GAQNPISWEVQRFDGWYNNLMEHRWGSKGSRLQRLVPASYADGVYQPLGEPHLPNPRDLSNTISRGPAGLASLRNRTVLGVFFGYHVLSDLVSVETPGCPAEFLNIRIPPGDPMFDPDQRGDVVLPFQRSRWDPETGRSPSNPRDPANQVTGWLDGSAIYGSSHSWSDALRSFSRGQLASGPDPAFPRDSQNPLLMWAAPDPATGQNGPRGLYAFGAERGNREPFLQALGLLWFRYHNLWAQRLARQHPDWEDEELFQHARKRVIATYQNIAVYEWLPSFLQKTLPEYTGYRPFLDPSISSEFVAASEQFLSTMVPPGVYMRNASCHFQGVINRNSSVSRALRVCNSYWSREHPSLQSAEDVDALLLGMASQIAEREDHVLVEDVRDFWPGPLKFSRTDHLASCLQRGRDLGLPSYTKARAALGLSPITRWQDINPALSRSNDTVLEATAALYNQDLSWLELLPGGLLESHRDPGPLFSTIVLEQFVRLRDGDRYWFENTRNGLFSKKEIEEIRNTTLQDVLVAVINIDPSALQPNVFVWHKGDPCPQPRQLSTEGLPACAPSVVRDYFEGSGFGFGVTIGTLCCFPLVSLLSAWIVARLRMRNFKRLQGQDRQSIVSEKLVGGMEALEWQGHKEPCRPVLVYLQPGQIRVVDGRLTVLRTIQLQPPQKVNFVLSSNRGRRTLLLKIPKEYDLVLLFNLEEERQALVENLRGALKESGLSIQEWELREQELMRAAVTREQRRHLLETFFRHLFSQVLDINQADAGTLPLDSSQKVREALTCELSRAEFAESLGLKPQDMFVESMFSLADKDGNGYLSFREFLDILVVFMKGSPEEKSRLMFRMYDFDGNGLISKDEFIRMLRSFIEISNNCLSKAQLAEVVESMFRESGFQDKEELTWEDFHFMLRDHNSELRFTQLCVKGVEVPEVIKDLCRRASYISQDMICPSPRVSARCSRSDIETELTPQRLQCPMDTDPPQEIRRRFGKKVTSFQPLLFTEAHREKFQRSCLHQTVQQFKRFIENYRRHIGCVAVFYAIAGGLFLERAYYYAFAAHHTGITDTTRVGIILSRGTAASISFMFSYILLTMCRNLITFLRETFLNRYVPFDAAVDFHRLIASTAIVLTVLHSVGHVVNVYLFSISPLSVLSCLFPGLFHDDGSEFPQKYYWWFFQTVPGLTGVVLLLILAIMYVFASHHFRRRSFRGFWLTHHLYILLYVLLIIHGSFALIQLPRFHIFFLVPAIIYGGDKLVSLSRKKVEISVVKAELLPSGVTHLRFQRPQGFEYKSGQWVRIACLALGTTEYHPFTLTSAPHEDTLSLHIRAAGPWTTRLREIYSAPTGDRCARYPKLYLDGPFGEGHQEWHKFEVSVLVGGGIGVTPFASILKDLVFKSSVSCQVFCKKIYFIWVTRTQRQFEWLADIIREVEENDHQDLVSVHIYITQLAEKFDLRTTMLYICERHFQKVLNRSLFTGLRSITHFGRPPFEPFFNSLQEVHPQVRKIGVFSCGPPGMTKNVEKACQLINRQDRTHFSHHYENF
modifications: N-linked glycosylation
notes: human DUOX1, matured protein residues 20-1551; Secretion guided by a rat FSHbeta signal peptide before the GFP tag; GFP-tagged protein is 219 kDa; also called GFP-tagged hDUOX1; WT hDOUX1; source: HEK293F, BacMam baculovirus infection; digitonin-solubilised membrane for FSEC; purified with hDUOXA1 (Streptactin beads, peptidisc with NSPr, Superose 6 increase) for cryo-EM; not shown: GFP, …
- binding [5]: no binding (condition: expressed without hDUOXA1)
